Reference: PubChem BioAssay AID504791 (Drosophila RNAi Screening Center, 2011)
Aim: 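Genes of the fly required for silencing by miRNA, siRNA or endo-siRNA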 (primary screen). System: Drosophila S2-derived reporter cells. Reagent: long dsRNA against Drosophila genes, about 150-250 ng dsRNA per well (siRNA assay); about 80-120 ng (miRNA assay). Duration: about 5 days (siRNA assay); about 4 days (miRNA assay). Treatment: copper sulfate induction of reporters: 25 µM (siRNA assay); 200 mM stated (miRNA assay), 1-2 days before reading. Detection: 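Per-well ratio of Renilla over firefly light, expressed relative to that plate's average ratio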. Scale: siRNA reporter hit score: higher = 3 marks a strong hit with raised ratio; -3 a strong hit with lowered ratio. Active means: 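a well was a first-pass pick when its plate-scaled ratio rose above 1.5 (siRNA assay) or 1.6 (miRNA assay), or dropped below 0.6; a gene counted only if two separate dsRNAs agreed on retest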.
The screen tested about 23,000 reagents; below is an unselected part of those with a known target gene and a result. Over the whole deposit, 199 (0.86%) were called active. 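Plate-scaled ratios behind the calls are not deposited; printed light signals are raw; many rows marked increased or decreased are still called inactive.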 A plus sign joins genes that one reagent is predicted to hit.

gene	amplicon	siRNA reporter hit score	stable siRNA reporter change	miRNA reporter change	stable assay Renilla, run 1 (luminescence)	stable assay firefly, run 1 (luminescence)	outcome
sofe	DRSC19751				9887	5.21e5	inactive
CG13919	DRSC08388				7038	3.28e5	inactive
CG11562	DRSC00316				7164	3.72e5	inactive
brv1	DRSC11076				7322	3.64e5	inactive
Mgat4a	DRSC09326				3667	2.92e5	inactive
Mgat4a	DRSC11070				7583	3.67e5	inactive
CG5968	DRSC02916				8051	5.21e5	inactive
CG14561	DRSC11722				7679	4.70e5	inactive
CG4483	DRSC10426				3919	3.54e5	inactive
Vha36-3	DRSC18615				6822	4.78e5	inactive
CG3097	DRSC18275				7035	5.02e5	inactive
CG5611	DRSC15843				7341	6.40e5	inactive
Cpr97Ea	DRSC15974				7022	3.73e5	inactive
CG33752	DRSC05351				6335	3.40e5	inactive
Delta	DRSC16648				7776	4.06e5	inactive
CG17169	DRSC20905				5354	4.40e5	inactive
sll	DRSC16271				7499	2.66e5	inactive
Toll-4	DRSC03458				7837	3.79e5	inactive
Tektin-A	DRSC01921				22511	1.24e6	inactive
CG31510	DRSC14182				7422	4.73e5	inactive
GCS2alpha	DRSC21036				5423	4.14e5	inactive
Ugt37A3	DRSC15937				7174	4.46e5	inactive
Vps15	DRSC16553				7003	4.47e5	inactive
GstD2	DRSC16684				6756	4.09e5	inactive
z	DRSC18855	3			7526	2.78e5	inactive
z	DRSC23134				5407	3.72e5	inactive
wek	DRSC03561				16968	1.24e6	inactive

8 entries already listed, sorted by “stable assay Renilla, run 1 (luminescence)”, highest first.
gene	amplicon	siRNA reporter hit score	stable siRNA reporter change	miRNA reporter change	stable assay Renilla, run 1 (luminescence)	stable assay firefly, run 1 (luminescence)	outcome
Delta	DRSC16648				7776	4.06e5	inactive
CG5611	DRSC15843				7341	6.40e5	inactive
CG3097	DRSC18275				7035	5.02e5	inactive
Cpr97Ea	DRSC15974				7022	3.73e5	inactive
Vha36-3	DRSC18615				6822	4.78e5	inactive
CG33752	DRSC05351				6335	3.40e5	inactive
CG17169	DRSC20905				5354	4.40e5	inactive
CG4483	DRSC10426				3919	3.54e5	inactive

Next reagents follow.
gene	amplicon	siRNA reporter hit score	stable siRNA reporter change	miRNA reporter change	stable assay Renilla, run 1 (luminescence)	stable assay firefly, run 1 (luminescence)	outcome
CG4098	DRSC10399				9045	4.51e5	inactive
Nup93-1	DRSC19344				9022	4.28e5	inactive
CG17991	DRSC15294				5507	3.46e5	inactive
CG12729	DRSC17884				5776	3.12e5	inactive
Usp47	DRSC11313				8408	5.02e5	inactive
CG18549	DRSC15347				7414	3.99e5	inactive
CG31706	DRSC22704				3432	2.96e5	inactive
Arr1	DRSC01867				8151	5.69e5	inactive
CG42500	DRSC14822				6803	5.43e5	inactive
IntS6	DRSC18281				10995	7.58e5	inactive
Vajk4	DRSC06589			reporter ratio raised past the hit cutoff	14819	4.56e5	inactive
Vajk4	DRSC07003				7380	3.69e5	inactive
CG14113	DRSC10116				6555	3.95e5	inactive
thw	DRSC12552				7583	4.07e5	inactive
w	DRSC17233				8696	3.97e5	inactive
w	DRSC18850				7283	3.38e5	inactive
CG17404	DRSC15234				6082	4.87e5	inactive
CG1943	DRSC12576				7754	4.00e5	inactive
bchs	DRSC03126				8090	4.95e5	inactive
CG31626 + CG8677	DRSC21844		reporter ratio lowered past the hit cutoff		8271	9.09e5	inactive
Spp	DRSC00328				12887	5.61e5	inactive
Orp8	DRSC15110				2860	3.91e5	inactive
Orp8	DRSC15712				8544	3.82e5	inactive
Cdk4	DRSC07358				7094	3.17e5	inactive
alpha-Man-Ia	DRSC17642				4795	3.24e5	inactive
alpha-Man-Ia	DRSC18162				5827	4.14e5	inactive
alpha-Man-Ia	DRSC18163				6035	5.25e5	inactive
alpha-Man-Ia	DRSC18735				6152	4.54e5	inactive
alpha-Man-Ia	DRSC23100				4119	3.88e5	inactive
Non3	DRSC16359				8170	2.62e5	inactive
Mpi	DRSC16417				7070	3.24e5	inactive
GIIIspla2	DRSC18094				8187	5.87e5	inactive
CG34041	DRSC22276				8134	5.22e5	inactive
bb8	DRSC15578				7010	3.42e5	inactive
Taf11	DRSC03448				5911	3.06e5	inactive
CG4440	DRSC02747				6403	5.37e5	inactive
Or22c	DRSC00766				7850	4.55e5	inactive
REPTOR-BP	DRSC02683				8140	5.71e5	inactive
tna	DRSC09053				4811	4.04e5	inactive
tna	DRSC10937				6447	4.01e5	inactive
tna	DRSC23236				3748	3.23e5	inactive
Optix	DRSC05078				5248	3.97e5	inactive
Optix	DRSC07484				7903	4.85e5	inactive
Optix	DRSC21963				9699	5.34e5	inactive
eIF4H2	DRSC14582				6863	4.28e5	inactive
CG13806	DRSC08341				6151	3.27e5	inactive
Trxr2	DRSC11900				8047	4.13e5	inactive
whe	DRSC20537				6027	4.42e5	inactive
Pgant2	DRSC00587				8379	5.50e5	inactive
Or22b	DRSC00765				6139	3.96e5	inactive
CG8001	DRSC08611				8306	2.81e5	inactive
CG14089	DRSC10093				7570	3.93e5	inactive
CG12511	DRSC02171				8455	4.92e5	inactive
CG16798	DRSC02517				7710	5.06e5	inactive
CG31102	DRSC14260				6027	2.77e5	inactive
CG5883	DRSC10552				5799	3.74e5	inactive
